These are yes or no findings as the source states them, for the method shown. Binding seen in cells or lysates may run through a third protein. Binding can be weak; no strength is given. Sequences can lack the tags named with a protein.
Biological target: AFR1:HA (Arabidopsis)
Test: co-IP; total proteins from 10-d-old Arabidopsis seedlings (F1, doubly hemizygous AGL18:FLAG and AFR1:HA) immunoprecipitated with anti-HA agarose; western blot with anti-FLAG and anti-HA

binding: binds
B1: AGL18:FLAG (protein, UniProt Q9M2K8 1-256)
chain: MGRGRIEIKKIENINSRQVTFSKRRNGLIKKAKELSILCDAEVALIIFSSTGKIYDFSSVCMEQILSRYGYTTASTEHKQQREHQLLICASHGNEAVLRNDDSMKGELERLQLAIERLKGKELEGMSFPDLISLENQLNESLHSVKDQKTQILLNQIERSRIQEKKALEENQILRKQVEMLGRGSGPKVLNERPQDSSPEADPESSSSEEDENDNEEHHSDTSLQLGLSSTGYCTKRKKPKIELVCDNSGSQVASD
